Laboratory results: PubChem BioAssay AID743121 (NCATS, 2013)
Assay: 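Partners whose loss is lethal together with topoisomerase I blockade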 (primary screen). System: MDA-MB-231 cells, a human breast cancer line. Knock-down reagent: single siRNA against human genes, 20 nM siRNA (0.8 pmol per well). Time to read-out: 120 h (drug added 48 h after transfection, read 72 h later). Treatment: camptothecin 20 nM (about EC30) for 72 h; vehicle 0.1% DMSO in parallel plates. Read-out: 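Cell viability by ATP luminescence (CellTiter-Glo) as % of non-targeting siRNA wells, and the log2 ratio of viability without drug over viability with camptothecin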. Direction: log2 vehicle/camptothecin viability: higher = stronger sensitisation to camptothecin; viability with camptothecin and viability without drug: higher = more viable cells. Call rule: 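Each gene scored by redundant siRNA activity (RSA) over its individual siRNA ratios; a gene is called active at p < 0.001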.
This is one part, drawn at random, of about 26,000 reagents. In the full data, 167 (0.63%) got an active call. 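Calls are per gene from RSA p-values that are not deposited; an individual active-marked siRNA can sensitise only weakly.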 Reagents against one gene are numbered here. No sequences are given here.

| target | reagent | log2 vehicle/camptothecin viability | viability with camptothecin (% of control) | viability without drug (% of control) | activity call |
| --- | --- | --- | --- | --- | --- |
| KMT2D | 1 | -0.264 | 50.7 | 42.2 | inactive |
| KMT2D | 2 | 0.194 | 84.9 | 97.1 | inactive |
| KMT2D | 3 | -0.0837 | 98.6 | 93.1 | inactive |
| KMT2D | 4 | -0.285 | 95.7 | 78.6 | inactive |
| KCNJ11 | 1 | 0.0611 | 81.5 | 85 | inactive |
| KCNJ11 | 2 | -0.406 | 85.5 | 64.5 | inactive |
| KCNJ11 | 3 | -0.47 | 52.1 | 37.6 | inactive |
| KCNJ11 | 4 | 0.301 | 74.2 | 91.5 | inactive |
| NTHL1 | 1 | -0.371 | 71 | 54.9 | inactive |
| NTHL1 | 2 | -0.443 | 47.6 | 35 | inactive |
| NTHL1 | 3 | -0.222 | 101 | 86.7 | inactive |
| NTHL1 | 4 | -0.891 | 68.3 | 36.8 | inactive |
| ATRX | 1 | -0.0405 | 86.5 | 84.1 | inactive |
| ATRX | 2 | 0.157 | 56.6 | 63.1 | inactive |
| ATRX | 3 | -0.323 | 71.7 | 57.3 | inactive |
| ATRX | 4 | -0.321 | 117 | 93.8 | inactive |
| NSG2 | 1 | 0.0748 | 85.1 | 89.7 | inactive |
| NSG2 | 2 | 0.562 | 51.4 | 75.9 | inactive |
| NSG2 | 3 | -0.392 | 71.4 | 54.4 | inactive |
| NSG2 | 4 | -0.453 | 93.6 | 68.4 | inactive |
| POLL | 1 | -0.389 | 64.3 | 49.1 | inactive |
| POLL | 2 | -0.32 | 81.4 | 65.2 | inactive |
| POLL | 3 | -0.188 | 57.1 | 50.1 | inactive |
| NR2E1 | 1 | 0.124 | 76 | 82.9 | inactive |
| NR2E1 | 2 | -0.513 | 36.3 | 25.5 | inactive |
| NR2E1 | 3 | -0.106 | 60 | 55.8 | inactive |
| NR2E1 | 4 | -0.259 | 104 | 86.7 | inactive |

6 entries from above, reformatted:
target	reagent	log2 vehicle/camptothecin viability	viability with camptothecin (% of control)	viability without drug (% of control)	activity call
NSG2	2	0.562	51.4	75.9	inactive
NSG2	3	-0.392	71.4	54.4	inactive
NSG2	4	-0.453	93.6	68.4	inactive
POLL	1	-0.389	64.3	49.1	inactive
POLL	2	-0.32	81.4	65.2	inactive
POLL	3	-0.188	57.1	50.1	inactive

Additional results follow.
| target | reagent | log2 vehicle/camptothecin viability | viability with camptothecin (% of control) | viability without drug (% of control) | activity call |
| --- | --- | --- | --- | --- | --- |
| CXCL11 | 1 | -0.142 | 74.1 | 67.2 | inactive |
| CXCL11 | 2 | -0.164 | 56.1 | 50.1 | inactive |
| CXCL11 | 3 | -0.145 | 104 | 93.9 | inactive |
| CXCL11 | 4 | -0.336 | 110 | 87 | inactive |
| EPHA6 | 1 | -0.224 | 37.7 | 32.3 | inactive |
| EPHA6 | 2 | -0.0954 | 90 | 84.3 | inactive |
| EPHA6 | 3 | -0.0487 | 92 | 89 | inactive |
| EPHA6 | 4 | 0.236 | 93.8 | 110 | inactive |
| EPHA6 | 5 | -0.332 | 90 | 71.5 | inactive |
| EPHA6 | 6 | -0.191 | 82.7 | 72.4 | inactive |
| EPHA6 | 7 | 0.0538 | 89 | 92.4 | inactive |
| EEF2K | 1 | -0.158 | 71.3 | 63.9 | inactive |
| EEF2K | 2 | 0.197 | 80.8 | 92.6 | inactive |
| EEF2K | 3 | -0.303 | 83.5 | 67.7 | inactive |
| EEF2K | 4 | 0.208 | 58.4 | 67.5 | inactive |
| AKR7A2 | 1 | -0.198 | 90.8 | 79.1 | inactive |
| AKR7A2 | 2 | -0.559 | 71.8 | 48.7 | inactive |
| AKR7A2 | 3 | 0.311 | 80.7 | 100 | inactive |
| AKR7A2 | 4 | -0.247 | 61.7 | 52 | inactive |
